No constants are given. Whether binding was seen depends on the method and setting. Binding seen in cells or lysates may run through a third protein. Some entries that bind do so weakly or less than the wild type.
Key:
[1] = molecular target: CD58 (LFA-3) (human (endogenous in A375)) (UniProt P19256); test: co-IP; whole-cell lysates of A375 cells in 1% digitonin, 50 mM Tris-HCl pH 7.5, 150 mM NaCl; anti-CMTM6, anti-CD58 or anti-PD-L1 antibody 2 h at 4°C, Protein G Dynabeads, immunoblot; knockout cells (CMTM6, CD58, PD-L1) as controls of antibody specificity
[2] = molecular target: PD-L1 (human (endogenous in A375)) (UniProt Q9NZQ7); test: as above
[3] = molecular target: CD58 (LFA-3) (human (endogenous in A375)) (UniProt P19256); test: co-IP; cell surface immunoprecipitation: live A375 cells incubated with antibodies to the extracellular domains of CD58 or PD-L1 for 2 h at 4°C, unbound antibody washed off, lysis in 1% digitonin buffer, Protein G Dynabeads, immunoblot
[4] = molecular target: PD-L1 (human (endogenous in A375)) (UniProt Q9NZQ7); test: as above

Protein sequences, listed by entry. Tags and fused reporters are not part of them. Residues count along the entry.
UniProt P19256, residues 29-250: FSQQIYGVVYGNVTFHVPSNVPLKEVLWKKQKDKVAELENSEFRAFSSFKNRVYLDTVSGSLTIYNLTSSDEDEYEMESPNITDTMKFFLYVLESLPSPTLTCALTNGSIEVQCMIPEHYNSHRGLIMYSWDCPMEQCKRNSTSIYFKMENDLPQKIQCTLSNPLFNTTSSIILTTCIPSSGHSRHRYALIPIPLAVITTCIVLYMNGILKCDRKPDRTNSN
UniProt Q9NZQ7, residues 19-290: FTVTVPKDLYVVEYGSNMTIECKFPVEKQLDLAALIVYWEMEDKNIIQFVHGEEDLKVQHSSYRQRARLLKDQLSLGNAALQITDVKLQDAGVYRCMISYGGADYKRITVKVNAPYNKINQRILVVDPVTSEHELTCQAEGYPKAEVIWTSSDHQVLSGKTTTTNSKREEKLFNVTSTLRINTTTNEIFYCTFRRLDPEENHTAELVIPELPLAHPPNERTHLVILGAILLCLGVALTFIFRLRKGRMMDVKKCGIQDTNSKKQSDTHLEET

binding [1]: binds
binding [2]: binds
binding [3]: binds
binding [4]: binds
B1: CMTM6 (CKLF like MARVEL transmembrane domain containing 6) (protein, UniProt Q9NX76 1-183)
chain: MENGAVYSPTTEEDPGPARGPRSGLAAYFFMGRLPLLRRVLKGLQLLLSLLAFICEEVVSQCTLCGGLYFFEFVSCSAFLLSLLILIVYCTPFYERVDTTKVKSSDFYITLGTGCVFLLASIIFVSTHDRTSAEIAAIVFGFIASFMFLLDFITMLYEKRQESQLRKPENTTRAEALTEPLNA
